Results: the supplement of paper PMC10849652
The list shows a part of the results.

The chains behind the UniProt entries cited, without tags or fusion partners. Where a name states a change or a piece, a line headed by the entry shows the natural chain unless it says otherwise.
UniProt Q6P1M0: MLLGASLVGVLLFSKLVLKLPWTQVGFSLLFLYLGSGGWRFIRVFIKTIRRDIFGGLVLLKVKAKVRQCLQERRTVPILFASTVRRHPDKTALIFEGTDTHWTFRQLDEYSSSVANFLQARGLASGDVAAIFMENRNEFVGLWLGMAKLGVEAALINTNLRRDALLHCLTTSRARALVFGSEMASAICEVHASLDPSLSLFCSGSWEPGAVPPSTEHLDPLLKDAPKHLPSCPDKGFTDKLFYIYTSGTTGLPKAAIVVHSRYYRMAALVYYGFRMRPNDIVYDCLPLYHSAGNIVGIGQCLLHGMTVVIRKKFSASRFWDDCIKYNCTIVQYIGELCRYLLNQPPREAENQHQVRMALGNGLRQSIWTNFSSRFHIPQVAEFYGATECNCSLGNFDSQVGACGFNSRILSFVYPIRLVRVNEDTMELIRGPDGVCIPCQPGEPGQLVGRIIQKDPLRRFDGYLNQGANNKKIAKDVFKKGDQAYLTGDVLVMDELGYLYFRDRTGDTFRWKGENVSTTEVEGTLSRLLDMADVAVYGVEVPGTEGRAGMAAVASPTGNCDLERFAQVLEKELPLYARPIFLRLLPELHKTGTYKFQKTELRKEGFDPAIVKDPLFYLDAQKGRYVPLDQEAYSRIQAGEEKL
UniProt Q8TB61: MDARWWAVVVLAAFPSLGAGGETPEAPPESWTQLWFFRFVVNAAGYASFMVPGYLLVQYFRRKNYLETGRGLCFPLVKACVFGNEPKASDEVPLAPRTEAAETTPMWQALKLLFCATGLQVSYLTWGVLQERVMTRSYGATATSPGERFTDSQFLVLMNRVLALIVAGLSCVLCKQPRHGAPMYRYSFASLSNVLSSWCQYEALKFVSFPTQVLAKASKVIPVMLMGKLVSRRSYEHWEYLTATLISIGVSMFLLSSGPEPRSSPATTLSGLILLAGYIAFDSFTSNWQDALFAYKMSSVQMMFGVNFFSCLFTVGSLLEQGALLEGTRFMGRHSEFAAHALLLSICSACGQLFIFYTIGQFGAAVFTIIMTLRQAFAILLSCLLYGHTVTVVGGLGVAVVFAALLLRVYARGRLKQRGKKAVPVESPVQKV
UniProt P08195: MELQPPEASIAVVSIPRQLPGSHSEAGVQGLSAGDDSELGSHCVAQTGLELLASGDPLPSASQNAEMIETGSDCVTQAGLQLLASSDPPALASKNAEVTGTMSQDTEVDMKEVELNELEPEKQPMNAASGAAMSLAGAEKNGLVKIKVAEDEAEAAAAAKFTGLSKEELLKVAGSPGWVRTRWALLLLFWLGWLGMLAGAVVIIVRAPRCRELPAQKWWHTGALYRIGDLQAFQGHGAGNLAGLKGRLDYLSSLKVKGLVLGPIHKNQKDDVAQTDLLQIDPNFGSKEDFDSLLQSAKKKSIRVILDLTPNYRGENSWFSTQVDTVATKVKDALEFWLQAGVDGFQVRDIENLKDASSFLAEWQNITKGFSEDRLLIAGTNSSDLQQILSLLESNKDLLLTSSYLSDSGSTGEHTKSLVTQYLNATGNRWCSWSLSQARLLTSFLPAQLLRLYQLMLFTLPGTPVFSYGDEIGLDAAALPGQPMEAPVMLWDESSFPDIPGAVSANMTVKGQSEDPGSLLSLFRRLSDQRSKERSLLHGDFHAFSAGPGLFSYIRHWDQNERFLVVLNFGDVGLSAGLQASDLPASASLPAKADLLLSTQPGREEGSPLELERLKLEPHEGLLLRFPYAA
UniProt O00400: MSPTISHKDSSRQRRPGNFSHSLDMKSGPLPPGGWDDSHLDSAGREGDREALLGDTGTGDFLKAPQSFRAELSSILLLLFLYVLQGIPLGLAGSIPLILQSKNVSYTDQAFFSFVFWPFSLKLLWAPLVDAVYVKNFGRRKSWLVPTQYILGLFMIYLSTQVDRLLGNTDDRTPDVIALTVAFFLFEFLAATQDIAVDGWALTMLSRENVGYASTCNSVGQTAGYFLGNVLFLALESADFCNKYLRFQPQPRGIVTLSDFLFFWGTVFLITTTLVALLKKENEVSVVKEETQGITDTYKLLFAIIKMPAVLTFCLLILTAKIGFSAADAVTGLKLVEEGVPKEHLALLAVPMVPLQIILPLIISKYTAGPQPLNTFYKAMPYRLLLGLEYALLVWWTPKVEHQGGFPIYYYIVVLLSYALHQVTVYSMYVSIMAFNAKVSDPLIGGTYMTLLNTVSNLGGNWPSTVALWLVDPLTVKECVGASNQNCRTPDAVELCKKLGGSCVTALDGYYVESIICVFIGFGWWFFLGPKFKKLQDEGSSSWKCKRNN
UniProt P31641: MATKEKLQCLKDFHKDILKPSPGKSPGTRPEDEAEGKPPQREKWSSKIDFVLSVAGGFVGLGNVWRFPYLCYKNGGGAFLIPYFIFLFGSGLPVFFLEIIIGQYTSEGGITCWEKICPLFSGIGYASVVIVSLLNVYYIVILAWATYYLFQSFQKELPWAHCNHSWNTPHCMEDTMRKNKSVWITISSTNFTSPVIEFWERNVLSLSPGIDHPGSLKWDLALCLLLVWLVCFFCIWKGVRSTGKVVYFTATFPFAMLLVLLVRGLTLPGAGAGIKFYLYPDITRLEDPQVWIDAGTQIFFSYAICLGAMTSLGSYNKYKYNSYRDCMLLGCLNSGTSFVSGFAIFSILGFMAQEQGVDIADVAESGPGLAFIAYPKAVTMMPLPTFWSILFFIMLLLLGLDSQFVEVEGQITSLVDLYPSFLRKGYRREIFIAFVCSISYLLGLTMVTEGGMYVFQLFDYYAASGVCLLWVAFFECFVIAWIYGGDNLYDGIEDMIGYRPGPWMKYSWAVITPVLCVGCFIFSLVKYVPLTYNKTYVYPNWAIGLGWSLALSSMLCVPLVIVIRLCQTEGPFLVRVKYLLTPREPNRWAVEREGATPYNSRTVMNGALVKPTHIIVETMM
UniProt Q9BZD2: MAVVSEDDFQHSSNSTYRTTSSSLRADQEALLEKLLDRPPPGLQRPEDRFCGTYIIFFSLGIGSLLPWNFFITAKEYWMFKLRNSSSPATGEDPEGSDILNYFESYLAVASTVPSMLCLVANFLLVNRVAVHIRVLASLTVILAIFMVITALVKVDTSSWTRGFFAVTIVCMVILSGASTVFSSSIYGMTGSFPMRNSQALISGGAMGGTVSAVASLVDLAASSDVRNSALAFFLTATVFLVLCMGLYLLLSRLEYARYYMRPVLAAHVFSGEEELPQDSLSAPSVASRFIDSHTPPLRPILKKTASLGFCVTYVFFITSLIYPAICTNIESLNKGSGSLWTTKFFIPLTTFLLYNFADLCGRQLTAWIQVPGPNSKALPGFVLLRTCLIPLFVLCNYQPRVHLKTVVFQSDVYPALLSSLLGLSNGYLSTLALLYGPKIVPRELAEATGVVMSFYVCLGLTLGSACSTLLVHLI
UniProt Q96BI1: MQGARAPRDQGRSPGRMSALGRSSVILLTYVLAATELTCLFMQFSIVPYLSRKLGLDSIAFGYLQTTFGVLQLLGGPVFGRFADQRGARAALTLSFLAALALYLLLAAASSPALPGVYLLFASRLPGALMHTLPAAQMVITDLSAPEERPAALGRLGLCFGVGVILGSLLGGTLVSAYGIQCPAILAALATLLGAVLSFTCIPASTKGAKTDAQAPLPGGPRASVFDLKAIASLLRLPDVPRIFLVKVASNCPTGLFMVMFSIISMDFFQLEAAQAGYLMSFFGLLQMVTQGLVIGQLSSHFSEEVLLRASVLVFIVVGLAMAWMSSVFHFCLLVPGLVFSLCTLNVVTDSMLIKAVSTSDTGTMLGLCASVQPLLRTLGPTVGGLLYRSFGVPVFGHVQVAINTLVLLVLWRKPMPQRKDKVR
UniProt Q96CQ1: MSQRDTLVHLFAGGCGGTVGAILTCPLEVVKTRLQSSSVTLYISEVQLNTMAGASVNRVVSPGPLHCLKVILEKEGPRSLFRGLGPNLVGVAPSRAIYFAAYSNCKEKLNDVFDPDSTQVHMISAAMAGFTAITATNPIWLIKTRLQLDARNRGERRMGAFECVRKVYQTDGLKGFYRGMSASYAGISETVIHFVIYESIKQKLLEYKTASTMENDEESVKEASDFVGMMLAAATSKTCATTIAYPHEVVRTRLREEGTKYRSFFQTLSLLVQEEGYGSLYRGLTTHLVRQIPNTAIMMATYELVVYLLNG
UniProt Q9NYZ2: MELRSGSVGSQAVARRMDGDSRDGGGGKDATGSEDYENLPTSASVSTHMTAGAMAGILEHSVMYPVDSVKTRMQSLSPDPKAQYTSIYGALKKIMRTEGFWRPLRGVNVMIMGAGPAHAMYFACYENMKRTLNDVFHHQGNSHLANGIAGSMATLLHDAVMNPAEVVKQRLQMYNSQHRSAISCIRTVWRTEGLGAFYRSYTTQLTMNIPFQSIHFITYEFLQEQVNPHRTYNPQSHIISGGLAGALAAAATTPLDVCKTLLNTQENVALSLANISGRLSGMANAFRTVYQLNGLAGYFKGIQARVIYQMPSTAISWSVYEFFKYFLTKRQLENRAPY
UniProt Q96AG3: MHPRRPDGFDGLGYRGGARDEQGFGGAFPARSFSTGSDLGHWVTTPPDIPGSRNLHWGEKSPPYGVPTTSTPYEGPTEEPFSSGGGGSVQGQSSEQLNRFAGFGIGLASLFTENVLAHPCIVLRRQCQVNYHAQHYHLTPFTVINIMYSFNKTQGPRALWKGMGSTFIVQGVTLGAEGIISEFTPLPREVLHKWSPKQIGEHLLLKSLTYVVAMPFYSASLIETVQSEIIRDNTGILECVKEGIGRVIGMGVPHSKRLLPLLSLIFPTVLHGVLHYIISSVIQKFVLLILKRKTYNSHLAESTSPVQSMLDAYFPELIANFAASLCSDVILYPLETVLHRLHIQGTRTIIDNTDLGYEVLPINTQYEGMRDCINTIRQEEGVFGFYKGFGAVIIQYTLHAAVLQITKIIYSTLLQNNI
UniProt Q5BKX6: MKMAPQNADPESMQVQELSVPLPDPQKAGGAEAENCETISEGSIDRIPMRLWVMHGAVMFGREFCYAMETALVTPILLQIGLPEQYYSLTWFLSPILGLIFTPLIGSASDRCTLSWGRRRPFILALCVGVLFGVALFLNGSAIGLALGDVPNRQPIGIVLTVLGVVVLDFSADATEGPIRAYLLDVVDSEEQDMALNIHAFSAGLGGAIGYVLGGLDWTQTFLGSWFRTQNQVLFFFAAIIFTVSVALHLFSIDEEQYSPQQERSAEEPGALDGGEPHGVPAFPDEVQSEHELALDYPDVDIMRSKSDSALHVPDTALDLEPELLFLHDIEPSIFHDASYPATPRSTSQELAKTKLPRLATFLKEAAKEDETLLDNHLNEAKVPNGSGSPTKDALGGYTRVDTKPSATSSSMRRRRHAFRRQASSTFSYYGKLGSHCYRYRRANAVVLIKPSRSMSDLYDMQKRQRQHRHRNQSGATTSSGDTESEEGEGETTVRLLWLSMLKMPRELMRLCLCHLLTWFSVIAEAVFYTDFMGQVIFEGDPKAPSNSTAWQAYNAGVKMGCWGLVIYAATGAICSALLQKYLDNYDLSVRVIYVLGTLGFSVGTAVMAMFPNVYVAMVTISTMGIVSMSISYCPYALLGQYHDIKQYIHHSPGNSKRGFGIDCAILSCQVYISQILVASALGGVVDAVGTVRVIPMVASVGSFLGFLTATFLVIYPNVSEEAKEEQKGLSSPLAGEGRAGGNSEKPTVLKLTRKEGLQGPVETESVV
UniProt Q9BV35: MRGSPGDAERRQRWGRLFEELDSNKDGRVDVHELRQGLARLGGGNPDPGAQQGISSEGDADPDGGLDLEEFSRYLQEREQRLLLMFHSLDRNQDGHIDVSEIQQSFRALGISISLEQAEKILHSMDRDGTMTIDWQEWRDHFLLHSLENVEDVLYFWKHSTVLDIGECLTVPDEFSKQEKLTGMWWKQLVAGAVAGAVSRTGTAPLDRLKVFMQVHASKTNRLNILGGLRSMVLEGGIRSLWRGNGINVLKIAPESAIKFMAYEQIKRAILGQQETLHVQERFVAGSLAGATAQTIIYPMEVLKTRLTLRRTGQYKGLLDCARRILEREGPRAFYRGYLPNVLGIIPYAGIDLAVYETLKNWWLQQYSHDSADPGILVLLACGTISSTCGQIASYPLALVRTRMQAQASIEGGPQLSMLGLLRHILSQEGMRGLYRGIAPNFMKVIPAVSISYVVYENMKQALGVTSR
UniProt Q92504: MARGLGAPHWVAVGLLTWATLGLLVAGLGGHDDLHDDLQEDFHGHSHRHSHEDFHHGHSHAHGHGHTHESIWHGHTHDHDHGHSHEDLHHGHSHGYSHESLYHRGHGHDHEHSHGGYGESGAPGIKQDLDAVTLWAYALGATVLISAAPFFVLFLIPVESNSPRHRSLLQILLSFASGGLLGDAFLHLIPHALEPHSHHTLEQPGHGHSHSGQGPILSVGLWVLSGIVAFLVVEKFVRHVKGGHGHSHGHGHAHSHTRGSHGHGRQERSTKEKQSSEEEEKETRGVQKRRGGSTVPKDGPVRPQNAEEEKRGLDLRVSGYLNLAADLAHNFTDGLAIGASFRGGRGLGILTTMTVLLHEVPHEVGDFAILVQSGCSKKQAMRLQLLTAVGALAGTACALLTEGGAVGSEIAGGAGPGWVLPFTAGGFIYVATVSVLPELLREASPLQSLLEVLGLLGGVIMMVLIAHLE

Legend:
Experiment in all cases: log2 fold change, soluble protein after heating vs DMSO (PISA); higher = thermal stabilisation; K562 cells, 10 uM, 30 min; active = over 0.2 and 3.5 SD of the protein, either way, in both replicates (recomputed)
[1] = compound: CC1=C(C=C(C=C1)NC(=O)C2=CC(=CC=C2)C(C)(C)C#N)NC3=CC4=C(C=C3)N=CN(C4=O)C
In short: (§1)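 K562 cells at 2×10^6 cells/mL were treated for 30 min with 10 μM compound, and aliquots were heated for 3 min over 48°C-58°C before pooling. Extraction used PBS with 0.5% NP-40 at 4°C, and soluble protein was the supernatant after 21,000xg for 90 min, measured by TMTpro 16plex LC-MS/MS with channel sums equalised. Thermal stability values, relative to control samples and from duplicates, are log2 fold changes.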

[2] = compound: CC1=C(C=C(C=C1)NC(=O)C2=CC(=CC=C2)N(C)C)NC(=O)C3=CC=C(C=C3)O
In short: as §1

[3] = compound: CC1=CC=C(C=C1)SC2=C3C=C(SC3=CN=C2)C(=O)N
In short: as §1

[4] = compound: CC1=NC(=CC=C1)C2=C(N=C(N2)C(C)(C)C)C3=CC4=NC=CN=C4C=C3
In short: as §1

[5] = compound: CCCCN(Cc1ccc(C(=O)NO)cc1)C(=O)Nc1ccccc1 [Nexturastat A]
In short: as §1

[6] = compound: CCCS(=O)(=O)Nc1ccc(F)c(C(=O)c2c[nH]c3ncc(-c4ccc(Cl)cc4)cc23)c1F [vemurafenib]
In short: as §1

[7] = compound: CCCS(=O)(=O)Nc1ccc(F)c(C(=O)c2c[nH]c3ncc(Cl)cc23)c1F
In short: as §1

[8] = compound: CCCc1cc(C)[nH]c(=O)c1CNC(=O)c1cc(-c2ccnc(N3CCN(C)CC3)c2)cc2c1cnn2C(C)C
In short: as §1

[9] = compound: CCN(CC)Cc1ccc2cc(COC(=O)Nc3ccc(C(=O)NO)cc3)ccc2c1 [givinostat]
In short: as §1

[10] = compound: CCN(CCCOc1ccc2c(Nc3cc(CC(=O)Nc4cccc(F)c4)[nH]n3)ncnc2c1)CCOP(=O)(O)O [barasertib]
In short: as §1

Measured: log2 fold change

SLC30A6 isoform 2 (UniProt Q6NXT4)
inactive: [1] -0.054 | [2] -0.106 | [3] 0.017 | [4] -0.024 | [5] 0.005 | [6] -0.16 | [7] -0.017 | [8] -0.169 | [9] 0 | [10] -0.013

SLC10A4 (UniProt Q96EP9)
inactive: [1] -0.099 | [2] 0.04 | [3] -0.057 | [4] -0.205 | [5] 0.087 | [6] -0.181 | [7] -0.145 | [8] -0.1 | [9] 0.085 | [10] 0.052

SLC27A4 (UniProt Q6P1M0)
inactive: [1] -0.074 | [2] -0.072 | [3] 0.011 | [4] -0.096 | [5] -0.014 | [6] -0.039 | [7] -0.031 | [8] -0.017 | [9] 0.021 | [10] 0.056

SLC25A39 (UniProt Q9BZJ4)
inactive: [1] -0.029 | [2] 0.011 | [3] 0.207 | [4] 0.129 | [5] -0.037 | [6] -0.019 | [7] -0.048 | [8] -0.133 | [9] -0.092 | [10] 0.088

SLC35B2 (UniProt Q8TB61)
inactive: [1] 0.041 | [2] -0.009 | [3] 0.123 | [4] -0.021 | [5] 0.011 | [6] -0.056 | [7] 0.058 | [8] -0.011 | [9] -0.014 | [10] 0.009

SLC12A6 isoform 2 (UniProt Q9UHW9)
inactive: [1] -0.028 | [2] 0.024 | [3] 0.034 | [4] 0.013 | [5] 0.009 | [6] 0.014 | [7] 0.023 | [8] -0.044 | [9] -0.006 | [10] -0.041

SLC1A4 (UniProt P43007)
inactive: [1] -0.005 | [2] -0.059 | [3] -0.016 | [4] -0.064 | [5] 0.043 | [6] -0.047 | [7] 0.045 | [8] -0.039 | [9] 0.02 | [10] -0.024

SLC7A11 (UniProt Q9UPY5)
inactive: [1] -0.042 | [2] -0.014 | [3] 0.046 | [4] 0.013 | [5] 0.013 | [6] 0.036 | [7] -0.013 | [8] -0.035 | [9] 0.002 | [10] -0.002

SLC3A2 isoform 3 (UniProt P08195)
inactive: [1] 0.025 | [2] -0.006 | [3] 0.011 | [4] 0.009 | [5] -0.053 | [6] 0.014 | [7] 0.041 | [8] -0.014 | [9] -0.005 | [10] -0.005

SLC33A1 (UniProt O00400)
inactive: [1] 0.018 | [2] -0.053 | [3] -0.023 | [4] 0.013 | [5] -0.113 | [6] 0.016 | [7] 0.005 | [8] -0.006 | [9] 0.035 | [10] 0.01

SLC25A6 (UniProt P12236)
inactive: [1] 0.001 | [2] 0.031 | [3] 0.011 | [4] -0.022 | [5] -0.08 | [6] -0.009 | [7] 0.003 | [8] -0.067 | [9] -0.02 | [10] -0.028

SLC6A6 (UniProt P31641)
inactive: [1] 0.017 | [2] 0.014 | [3] 0.011 | [4] 0.028 | [5] -0.062 | [6] 0.066 | [7] -0.01 | [8] -0.176 | [9] 0.014 | [10] -0.018

SLC43A1 (UniProt O75387)
inactive: [1] -0.042 | [2] -0.036 | [3] 0.009 | [4] -0.018 | [5] -0.168 | [6] 0.074 | [7] 0.01 | [8] -0.04 | [9] -0.039 | [10] 0.026

SLC29A3 (UniProt Q9BZD2)
inactive: [1] 0.005 | [2] -0.023 | [3] 0.089 | [4] 0 | [5] 0.124 | [6] -0.097 | [7] -0.128 | [8] 0.017 | [9] 0.005 | [10] -0.016

SLC22A18 (UniProt Q96BI1)
inactive: [1] 0.031 | [2] -0.091 | [3] -0.002 | [4] -0.01 | [5] -0.018 | [6] 0.017 | [7] 0 | [8] 0.014 | [9] -0.017 | [10] 0.03

Fetched one by one from above, 2 records:
SLC27A4 (UniProt Q6P1M0)
inactive: [1] -0.074 | [2] -0.072 | [3] 0.011 | [4] -0.096 | [5] -0.014 | [6] -0.039 | [7] -0.031 | [8] -0.017 | [9] 0.021 | [10] 0.056

SLC1A4 (UniProt P43007)
inactive: [1] -0.005 | [2] -0.059 | [3] -0.016 | [4] -0.064 | [5] 0.043 | [6] -0.047 | [7] 0.045 | [8] -0.039 | [9] 0.02 | [10] -0.024

Continuation.

SLC25A36 (UniProt Q96CQ1)
inactive: [1] 0.044 | [2] 0.008 | [3] -0.172 | [4] -0.048 | [5] 0.016 | [7] 0.016 | [8] -0.067 | [9] 0.115 | [10] -0.011
active: [6] -0.297

SLC25A37 (UniProt Q9NYZ2)
inactive: [1] 0.045 | [2] -0.083 | [3] 0.011 | [4] -0.004 | [5] -0.027 | [6] 0.077 | [7] 0.007 | [8] -0.066 | [9] 0.021 | [10] 0.059

SLC25A46 (UniProt Q96AG3)
inactive: [1] 0.004 | [2] -0.037 | [3] -0.023 | [4] 0.022 | [5] -0.027 | [6] -0.074 | [7] -0.015 | [8] -0.026 | [9] -0.028 | [10] 0.004

SLC2A4 (UniProt P14672)
inactive: [1] 0.033 | [2] -0.006 | [3] 0.083 | [7] 0.122 | [8] -0.04 | [9] -0.018 | [10] -0.032

SLC25A12 (UniProt O75746)
inactive: [1] -0.022 | [2] 0.02 | [3] 0.022 | [4] 0.005 | [5] -0.034 | [6] -0.024 | [7] -0.031 | [8] 0.008 | [9] -0.014 | [10] -0.003

SLC17A5 (UniProt Q9NRA2)
inactive: [1] 0.121 | [2] -0.121 | [3] -0.167 | [4] 0.082 | [7] 0.01 | [9] 0.043

SLC45A4 isoform 3 (UniProt Q5BKX6)
inactive: [1] 0.117 | [2] 0.092 | [3] -0.013 | [4] 0.03 | [5] 0.041 | [6] -0.139 | [7] -0.064 | [8] 0.01 | [9] 0.011 | [10] 0.009

SLC39A11 (UniProt Q8N1S5)
inactive: [1] 0.046 | [2] 0.372 | [3] -0.057 | [4] 0.045 | [6] 0.055 | [7] -0.026 | [8] -0.009 | [9] 0.074 | [10] -0.002

SLC19A2 (UniProt O60779)
inactive: [1] 0.163 | [2] -0.077 | [3] 0.285 | [4] -0.176 | [5] 0.388 | [6] 0.027 | [7] -0.009 | [9] 0.026

SLC25A23 isoform 3 (UniProt Q9BV35)
inactive: [1] -0.04 | [2] 0.12 | [3] 0.022 | [4] -0.002 | [6] -0.025 | [7] -0.005 | [8] 0.129 | [9] 0.071 | [10] 0.084

SLC25A44 (UniProt Q96H78)
inactive: [1] 0.016 | [3] 0.001 | [4] -0.013 | [5] 0.004 | [6] 0.027 | [7] -0.041 | [8] -0.031 | [10] 0.035

SLC39A7 (UniProt Q92504)
inactive: [1] -0.082 | [2] 0.085 | [3] -0.058 | [4] 0.016 | [5] 0.012 | [6] -0.106 | [7] 0 | [8] -0.09 | [9] -0.06 | [10] -0.02

SLC39A3 (UniProt Q9BRY0)
inactive: [1] 0.038 | [2] -0.048 | [3] 0.059 | [5] -0.151 | [6] 0.017 | [7] 0.055 | [8] -0.122 | [9] -0.023 | [10] -0.029
